Data source: PubChem BioAssay AID1053208 (Peter MacCallum Cancer Centre, 2014)

- Test: 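Synthetic lethal interactions between gene loss and doxorubicin in osteosarcoma cells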 (primary screen)
- Cells: mouse osteosarcoma cells, early-passage culture from an engineered mouse model of fibroblastic bone tumour
- Knock-down reagent: siRNA pool against mouse genes, 40 nM
- Time to read-out: about 120 h (48 h before drug, then 72 h with drug)
- Conditions: doxorubicin 100 nM for 72 h, roughly 30-40% inhibitory dose
- Measured: 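Luminescent ATP signal taken as viability with or without 100 nM doxorubicin for 72 h; mean of two wells set against non-targeting siRNA and turned into robust z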
- Direction: viability z-score with doxorubicin and doxorubicin viability vs non-targeting: higher = more viable cells under doxorubicin; viability z-score without drug: higher = more viable cells with knock-down alone; z-score of drug to no-drug ratio: higher = less drug sensitisation by knock-down
- Rule for the call: 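Called active if knock-down leaves viability unchanged without drug (z within -2 to 2) but lowers it with doxorubicin (z at or under -2)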
The whole screen tested about 17,000 reagents; shown is an unselected part. 788 of them (4.7%) were called active. 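Calls rest on z-score classes alone; an extra cut-off of viability at most 70% of control was not applied to them.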 Unmarked entries are inactive.

| gene symbol | combined z-score class | viability z-score with doxorubicin | viability z-score without drug | z-score of drug to no-drug ratio | doxorubicin viability vs non-targeting |
| --- | --- | --- | --- | --- | --- |
| Flna | no change with or without drug | 0.22 | -0.51 | 0.67 | 0.96 |
| Tsnaxip1 | no change with or without drug | -0.67 | -0.34 | -0.34 | 0.88 |
| 2900052L18Rik | no change with or without drug | 0 | -0.17 | 0.22 | 0.94 |
| Rgs8 | no change with or without drug | 0 | -0.34 | 0.34 | 0.94 |
| Mlf1 | no change with or without drug | -0.22 | -0.17 | 0 | 0.92 |
| Cdh24 | no change with or without drug | -0.22 | -1.18 | 0.79 | 0.92 |
| Dazap1 | no change with or without drug | -0.45 | 0.84 | -0.9 | 0.9 |
| Zscan12 | high cell count with and without drug | 2.14 | 3.04 | 0.22 | 1.13 |
| Tas1r1 | no change with or without drug | 0.22 | 1.18 | -0.45 | 0.96 |
| Clcn2 | no change with or without drug | 0.79 | 0.67 | 0.45 | 1.01 |
| Or8k30 | no change with or without drug | 1.8 | -0.51 | 2.47 | 1.1 |
| Akt3 | no change with or without drug | 1.69 | 0.51 | 1.46 | 1.09 |

Sorted by “viability z-score without drug” (descending): 2 of the entries above.
| gene symbol | combined z-score class | viability z-score with doxorubicin | viability z-score without drug | z-score of drug to no-drug ratio | doxorubicin viability vs non-targeting |
| --- | --- | --- | --- | --- | --- |
| 2900052L18Rik | no change with or without drug | 0 | -0.17 | 0.22 | 0.94 |
| Rgs8 | no change with or without drug | 0 | -0.34 | 0.34 | 0.94 |

The list goes on.
| gene symbol | combined z-score class | viability z-score with doxorubicin | viability z-score without drug | z-score of drug to no-drug ratio | doxorubicin viability vs non-targeting |
| --- | --- | --- | --- | --- | --- |
| A430093F15Rik | no change with or without drug | -1.35 | -0.17 | -1.24 | 0.82 |
| Rpl11 | low cell count with and without drug | -4.38 | -3.88 | -2.47 | 0.55 |
| Itgb1bp2 | no change with or without drug | -0.79 | -1.01 | 0 | 0.87 |
| Rspo3 | no change with or without drug | -0.22 | 1.01 | -0.79 | 0.92 |
| Aldh8a1 | no change with or without drug | 0.9 | -0.17 | 1.24 | 1.02 |
| Sprr2h | no change with or without drug | 0.56 | 1.69 | -0.45 | 0.99 |
| Alox8 | no change with or without drug | 0.56 | 1.52 | -0.34 | 0.99 |
| Tfap2d | no change with or without drug | 1.12 | 1.18 | 0.45 | 1.04 |
